Data on one molecule can be found in US20020147306A1, “Peptides that modulate the interaction of B class ephrins and PDZ domains” (priority 1998, published 2002).

This test has as its target T1, ephrin B1 (wild-type, full-length) (UniProt P98172).
T1 sequence (looked up): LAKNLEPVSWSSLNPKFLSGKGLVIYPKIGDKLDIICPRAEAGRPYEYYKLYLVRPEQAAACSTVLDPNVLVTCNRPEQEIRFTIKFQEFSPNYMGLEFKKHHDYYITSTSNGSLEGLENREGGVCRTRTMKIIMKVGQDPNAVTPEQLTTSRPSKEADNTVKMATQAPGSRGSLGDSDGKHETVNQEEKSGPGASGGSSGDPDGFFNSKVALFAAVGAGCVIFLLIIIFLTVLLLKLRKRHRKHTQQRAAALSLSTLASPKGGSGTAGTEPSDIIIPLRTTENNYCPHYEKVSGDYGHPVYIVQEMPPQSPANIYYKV
Description: GST mix with GST fusions of syntenin fragments, anti-ephrin B1 immunoblot.

Results are given in words; binding and its absence hold for the method and conditions named. Some entries that bind do so weakly or less than the wild type. Where a sequence is shown, tags or fusion partners need not be part of it.

B1: GST-syntenin PDZ 1+2 (residues 101-299) (protein, mouse, UniProt O08992 101-299, looked up, not shown: a dimerising Fc or GST)
chain: DAGIRRAEIKQGIREVILCKDQDGKIGLRLKSIDNGIFVQLVQANSPASLVGLRFGDQVLQINGENCAGWSSDKAHKVLKQAFGEKITMTIRDRPFERTVTMHKDSSGHVGFIFKSGKITSIVKDSSAARNGLLTDHHICEINGQNVIGLKDAQIADILSTAGTVVTITIMPTFIFEHIIKRMAPSIMKSLMDHTIPEV
Turning to B1, the binding result was “binds”.
